Test results published in publication PMC6988281.
No constants are given. Whether binding was seen depends on the method and setting. In cells and extracts the contact can be indirect. A yes stands for co-enrichment or nearness to the bait. Other partners may have been found.

Sequences of proteins named here, by UniProt entry; tags and fusion partners are left off.
UniProt Q9C030: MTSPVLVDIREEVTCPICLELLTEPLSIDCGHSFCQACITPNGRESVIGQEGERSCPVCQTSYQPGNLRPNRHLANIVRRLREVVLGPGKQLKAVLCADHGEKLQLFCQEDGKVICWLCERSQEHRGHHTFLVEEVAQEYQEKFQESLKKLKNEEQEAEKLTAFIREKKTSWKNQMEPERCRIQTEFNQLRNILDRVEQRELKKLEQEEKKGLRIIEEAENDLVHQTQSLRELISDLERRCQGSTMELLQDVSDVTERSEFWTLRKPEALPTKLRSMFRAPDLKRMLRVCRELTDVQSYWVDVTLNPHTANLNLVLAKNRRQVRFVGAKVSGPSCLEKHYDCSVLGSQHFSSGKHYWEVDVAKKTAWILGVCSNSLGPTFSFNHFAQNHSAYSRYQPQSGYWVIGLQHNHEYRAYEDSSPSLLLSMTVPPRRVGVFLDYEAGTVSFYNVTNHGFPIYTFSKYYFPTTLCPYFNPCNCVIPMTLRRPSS
UniProt P78543: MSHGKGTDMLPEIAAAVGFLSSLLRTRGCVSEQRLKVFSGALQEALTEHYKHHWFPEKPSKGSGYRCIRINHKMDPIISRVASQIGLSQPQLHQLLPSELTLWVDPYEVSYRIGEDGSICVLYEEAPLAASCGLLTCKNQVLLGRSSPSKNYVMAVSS

Target: FLAG-tagged TRIM6 (tripartite motif-containing protein 6) (UniProt Q9C030)
Test: affinity purification with mass spectrometry; FLAG-TRIM6 or vector in 293T cells, RIPA lysate pre-cleared with IgG and protein A/G beads, anti-FLAG beads overnight at 4 °C, eluted with FLAG peptide, SDS-PAGE, differential bands excised and analysed by LC/MS

Question: For “TIS21 (endogenous, 293T cells) (from UniProt P78543 1-158)”, which binding is on record?
Answer: binds
